From publication doi:10.1101/2025.10.06.680735, “JMJD1B-mediated FEN1 demethylation allows timely switching of Okazaki fragment maturation core enzymes to avoid mutagenic flap ligation by PARP1-LIG3” (bioRxiv, 2025)
These are yes or no findings as the source states them, for the method shown. In cells and extracts the contact can be indirect. Here binding means that the protein was enriched with, or labelled near, the bait; the list need not be complete.

Sequences of proteins named here, by UniProt entry; tags and fusion partners are left off.
UniProt P39748: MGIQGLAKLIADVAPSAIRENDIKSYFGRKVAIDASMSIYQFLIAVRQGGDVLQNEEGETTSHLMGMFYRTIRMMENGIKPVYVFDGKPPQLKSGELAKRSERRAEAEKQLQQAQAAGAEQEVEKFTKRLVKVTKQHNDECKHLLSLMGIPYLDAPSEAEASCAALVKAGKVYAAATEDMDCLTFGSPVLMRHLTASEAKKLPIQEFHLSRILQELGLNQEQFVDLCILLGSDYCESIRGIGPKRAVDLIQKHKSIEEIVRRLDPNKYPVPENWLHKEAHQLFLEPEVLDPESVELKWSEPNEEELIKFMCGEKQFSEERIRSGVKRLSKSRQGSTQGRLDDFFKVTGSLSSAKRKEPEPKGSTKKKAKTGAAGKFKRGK
UniProt Q7LBC6: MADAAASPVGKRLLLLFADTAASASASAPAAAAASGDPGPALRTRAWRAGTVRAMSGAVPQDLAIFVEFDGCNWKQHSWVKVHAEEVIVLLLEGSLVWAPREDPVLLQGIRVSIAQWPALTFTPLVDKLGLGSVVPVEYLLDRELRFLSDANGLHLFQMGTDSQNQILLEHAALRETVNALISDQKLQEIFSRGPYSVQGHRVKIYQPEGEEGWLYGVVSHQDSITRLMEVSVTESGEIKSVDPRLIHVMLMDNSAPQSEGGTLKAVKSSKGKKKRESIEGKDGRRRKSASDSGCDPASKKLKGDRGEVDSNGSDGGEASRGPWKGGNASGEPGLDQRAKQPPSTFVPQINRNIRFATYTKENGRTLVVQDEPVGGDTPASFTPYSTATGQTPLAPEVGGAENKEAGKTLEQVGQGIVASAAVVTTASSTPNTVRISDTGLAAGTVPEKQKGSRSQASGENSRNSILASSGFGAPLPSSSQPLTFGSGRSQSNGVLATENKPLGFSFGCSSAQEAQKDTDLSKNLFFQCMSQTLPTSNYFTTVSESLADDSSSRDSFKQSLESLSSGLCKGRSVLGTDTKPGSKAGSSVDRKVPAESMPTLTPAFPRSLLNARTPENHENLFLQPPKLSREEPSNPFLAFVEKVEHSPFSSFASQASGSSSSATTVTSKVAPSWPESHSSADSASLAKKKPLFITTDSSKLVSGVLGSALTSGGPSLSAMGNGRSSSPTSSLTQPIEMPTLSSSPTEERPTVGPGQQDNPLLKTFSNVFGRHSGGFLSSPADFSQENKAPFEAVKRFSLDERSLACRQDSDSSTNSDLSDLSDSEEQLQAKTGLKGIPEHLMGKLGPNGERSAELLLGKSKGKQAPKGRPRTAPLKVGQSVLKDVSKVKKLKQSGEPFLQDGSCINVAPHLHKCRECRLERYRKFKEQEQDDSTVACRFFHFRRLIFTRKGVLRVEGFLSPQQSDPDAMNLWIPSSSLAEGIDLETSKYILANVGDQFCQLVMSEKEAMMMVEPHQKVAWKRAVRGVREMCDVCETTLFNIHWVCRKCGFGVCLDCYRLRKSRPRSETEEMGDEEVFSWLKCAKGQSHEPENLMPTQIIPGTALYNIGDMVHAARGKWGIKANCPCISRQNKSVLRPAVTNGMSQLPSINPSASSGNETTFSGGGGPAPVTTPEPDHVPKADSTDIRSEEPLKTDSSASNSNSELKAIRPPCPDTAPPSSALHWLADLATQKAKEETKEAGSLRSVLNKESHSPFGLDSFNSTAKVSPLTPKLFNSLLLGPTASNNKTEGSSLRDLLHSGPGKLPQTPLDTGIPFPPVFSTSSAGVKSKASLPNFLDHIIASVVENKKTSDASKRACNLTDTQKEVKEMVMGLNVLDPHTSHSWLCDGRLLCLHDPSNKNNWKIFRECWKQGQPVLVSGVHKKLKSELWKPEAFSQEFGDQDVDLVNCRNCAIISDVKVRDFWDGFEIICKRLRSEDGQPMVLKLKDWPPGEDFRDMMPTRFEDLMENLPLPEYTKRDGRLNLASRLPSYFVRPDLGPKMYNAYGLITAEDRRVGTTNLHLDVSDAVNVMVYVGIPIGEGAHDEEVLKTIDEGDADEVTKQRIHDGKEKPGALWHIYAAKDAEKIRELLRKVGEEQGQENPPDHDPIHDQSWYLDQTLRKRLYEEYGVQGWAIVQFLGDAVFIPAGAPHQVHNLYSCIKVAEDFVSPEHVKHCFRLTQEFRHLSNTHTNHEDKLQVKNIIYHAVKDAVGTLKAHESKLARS

Target: GFP-tagged FEN1 (UniProt P39748)
Assay: affinity purification with mass spectrometry; GFP or GFP-tagged FEN1 immunoprecipitated with anti-GFP antibody from nuclear extracts of UV-exposed HeLa cells; LC-MS/MS

JMJD1B (also known as KDM3B) (from UniProt Q7LBC6 1-1761) (enzyme)
binding: binds
